Assay results published in PMC7819943, “Rice protein-binding microarrays: a tool to detect cis-acting elements near promoter regions in rice”.
Some of the results follow.

The chains behind the UniProt entries cited, without tags or fusion partners.
UniProt Q0JBA9, entry or part of it: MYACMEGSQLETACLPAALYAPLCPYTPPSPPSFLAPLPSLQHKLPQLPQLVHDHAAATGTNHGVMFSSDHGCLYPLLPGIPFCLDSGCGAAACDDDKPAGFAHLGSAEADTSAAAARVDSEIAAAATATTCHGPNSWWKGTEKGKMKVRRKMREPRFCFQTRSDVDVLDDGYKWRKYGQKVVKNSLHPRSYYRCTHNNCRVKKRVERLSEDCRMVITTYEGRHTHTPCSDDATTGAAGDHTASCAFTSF

The sequences below were run against OsWRKY34 (Oryza sativa, UniProt Q0JBA9 1-250) (assay: protein-binding microarray (RPBM); PBS, 2% BSA, 51.3 ng/ul salmon testes DNA, 50 uM zinc acetate, 200 nM TF, 25 C, 1 h; high values mean tight binding). Conditions: protein: recombinant; tags: N-terminal polyhistidine and DsRed monomer fusion (pET32a); label: CyDye5-dUTP incorporated in the synthesized complementary strand; 3' TTTTT single-stranded linker to array surface; dsDNA, one strand shown.
Outline: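 Ni–NTA purification followed expression in E. coli BL21-CodonPlus of transcription factors fused N-terminally to a polyhistidine tag and DsRed. At 200 nM in PBS with 2% BSA, salmon testes DNA and 50 µM zinc acetate, the protein was incubated for 1 h at 25 °C with a custom Agilent array that had been primer-extended with Cy5-dUTP and blocked with 2% BSA. After washing, the array was read on an Axon 4000B scanner. The binding signal is per-feature fluorescence intensity in arbitrary units.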

Q: For “GAGGGGTCGGCTCATGCTTTTCACACACTAATTCTCTCGCCGGAGTCACCTAGTGCAG”, which binding signal is on record?
A: 12200 fluorescence intensity (a.u.)

Q: With “GAGGCGGAGATGGGCACGCATGGAGGCGGCGGCGGTGGGGCGGAGTCACCTAGTGCAG” as the sequence, how does the binding signal read?
A: 9880 fluorescence intensity (a.u.)

Q: “GTGACTTTTCTCACTAGAGTCCCTGTGTTCCCATAATTTTCGGAGTCACCTAGTGCAG” was tested. Which binding signal did it give?
A: 11300 fluorescence intensity (a.u.)

Q: With “TTTTCAGTTTATTTTGTTCTTTTTGTTGCAACTCGCAAAACGGAGTCACCTAGTGCAG” as the sequence, how does the binding signal read?
A: 8910 fluorescence intensity (a.u.)

Q: For “GCCCGCCATCAGCTAAGCATCCATCCATGTTCTATATAGACGGAGTCACCTAGTGCAG”, which binding signal is on record?
A: 8180 fluorescence intensity (a.u.)

Q: For “GTTGTTTTCTTCCTTTAGGTGATCCATCTTCTTTGTAACACGGAGTCACCTAGTGCAG”, which binding signal is on record?
A: 8440 fluorescence intensity (a.u.)

Q: For “TTTCGGGCTGCTTCGGGCTCGCGCGGGTGGTGGGAGGAAGCGGAGTCACCTAGTGCAG”, which binding signal is on record?
A: 9100 fluorescence intensity (a.u.)

Q: “GACAAGTTGAGGGACCTTCAGTGTACTTTTTCCTTTTTCTCGGAGTCACCTAGTGCAG” was tested. Which binding signal did it give?
A: 8580 fluorescence intensity (a.u.)

Q: “ACACTCTTTAACTCTGTATATGTGTTATCTGATGGCTGATCGGAGTCACCTAGTGCAG” was tested. Which binding signal did it give?
A: 8440 fluorescence intensity (a.u.)

Q: “ACCTCGTCGGTTCTCAGCCGTTGTCCTCTGCCGCGAGATCCGGAGTCACCTAGTGCAG” was tested. Which binding signal did it give?
A: 9730 fluorescence intensity (a.u.)

Q: Which binding signal does the source give for “GTCCATTAGCGTCACCCAGTCTAAATCTACATTGCAAATACGGAGTCACCTAGTGCAG” here?
A: 9910 fluorescence intensity (a.u.)

Q: “GTCGTTGTCGGAGCCAGGTAATATTTTTGTAGGGTATTGACGGAGTCACCTAGTGCAG” was tested. Which binding signal did it give?
A: 9380 fluorescence intensity (a.u.)

Q: Which binding signal does the source give for “CGTCCGTACCAAGATCCAACGGCCCAGATCTCTCTCTCCTCGGAGTCACCTAGTGCAG” here?
A: 8580 fluorescence intensity (a.u.)

Q: “TTATTATCGCCATATATGTATGTCACATCATTTTTTTTAACGGAGTCACCTAGTGCAG” was tested. Which binding signal did it give?
A: 8240 fluorescence intensity (a.u.)

Q: With “CACCATATCATCGGTCGCACACCATCGCCGCGTGACCGAACGGAGTCACCTAGTGCAG” as the sequence, how does the binding signal read?
A: 9670 fluorescence intensity (a.u.)

Q: With “TCCGTCGCCTCCGGCCACCACTCCGCCGCCAACTCTTACCCGGAGTCACCTAGTGCAG” as the sequence, how does the binding signal read?
A: 9410 fluorescence intensity (a.u.)

Q: “GATGGATGGTCTGCCTAATTTCAATTTGTCTCCCAAACTACGGAGTCACCTAGTGCAG” was tested. Which binding signal did it give?
A: 9530 fluorescence intensity (a.u.)

Q: For “TTACGTTGCACCTATCGCTTCTCTGCAACTTGACACAATACGGAGTCACCTAGTGCAG”, which binding signal is on record?
A: 9200 fluorescence intensity (a.u.)

Q: With “TTTGTGGGTGATGGTGGGTGGGAGTGGGATAGGGCGGCCCCGGAGTCACCTAGTGCAG” as the sequence, how does the binding signal read?
A: 17000 fluorescence intensity (a.u.)

Q: “TTGGTCTCGGAATATGATTTCTTTGTTTGTTCCATGTATACGGAGTCACCTAGTGCAG” was tested. Which binding signal did it give?
A: 8840 fluorescence intensity (a.u.)

Q: “TCTCTTTCCTCATTTATTCACTTGCCACATCATTTTTCATCGGAGTCACCTAGTGCAG” was tested. Which binding signal did it give?
A: 8440 fluorescence intensity (a.u.)

Q: With “GTTGTGGTAAATATGTGATGTCGTCTTTTAAAAAAAGATACGGAGTCACCTAGTGCAG” as the sequence, how does the binding signal read?
A: 8650 fluorescence intensity (a.u.)

Q: Which binding signal does the source give for “CGAGCTTCGGTTCATCTCTGTCGCCAAATCCTAGTGTGTCCGGAGTCACCTAGTGCAG” here?
A: 9390 fluorescence intensity (a.u.)
